The target in this assay is T1, 3xFLAG-ATF7IP K16R mutant (stably expressed in Atf7ip KO mESCs) (mouse) (UniProt Q7TT18).
T1 sequence: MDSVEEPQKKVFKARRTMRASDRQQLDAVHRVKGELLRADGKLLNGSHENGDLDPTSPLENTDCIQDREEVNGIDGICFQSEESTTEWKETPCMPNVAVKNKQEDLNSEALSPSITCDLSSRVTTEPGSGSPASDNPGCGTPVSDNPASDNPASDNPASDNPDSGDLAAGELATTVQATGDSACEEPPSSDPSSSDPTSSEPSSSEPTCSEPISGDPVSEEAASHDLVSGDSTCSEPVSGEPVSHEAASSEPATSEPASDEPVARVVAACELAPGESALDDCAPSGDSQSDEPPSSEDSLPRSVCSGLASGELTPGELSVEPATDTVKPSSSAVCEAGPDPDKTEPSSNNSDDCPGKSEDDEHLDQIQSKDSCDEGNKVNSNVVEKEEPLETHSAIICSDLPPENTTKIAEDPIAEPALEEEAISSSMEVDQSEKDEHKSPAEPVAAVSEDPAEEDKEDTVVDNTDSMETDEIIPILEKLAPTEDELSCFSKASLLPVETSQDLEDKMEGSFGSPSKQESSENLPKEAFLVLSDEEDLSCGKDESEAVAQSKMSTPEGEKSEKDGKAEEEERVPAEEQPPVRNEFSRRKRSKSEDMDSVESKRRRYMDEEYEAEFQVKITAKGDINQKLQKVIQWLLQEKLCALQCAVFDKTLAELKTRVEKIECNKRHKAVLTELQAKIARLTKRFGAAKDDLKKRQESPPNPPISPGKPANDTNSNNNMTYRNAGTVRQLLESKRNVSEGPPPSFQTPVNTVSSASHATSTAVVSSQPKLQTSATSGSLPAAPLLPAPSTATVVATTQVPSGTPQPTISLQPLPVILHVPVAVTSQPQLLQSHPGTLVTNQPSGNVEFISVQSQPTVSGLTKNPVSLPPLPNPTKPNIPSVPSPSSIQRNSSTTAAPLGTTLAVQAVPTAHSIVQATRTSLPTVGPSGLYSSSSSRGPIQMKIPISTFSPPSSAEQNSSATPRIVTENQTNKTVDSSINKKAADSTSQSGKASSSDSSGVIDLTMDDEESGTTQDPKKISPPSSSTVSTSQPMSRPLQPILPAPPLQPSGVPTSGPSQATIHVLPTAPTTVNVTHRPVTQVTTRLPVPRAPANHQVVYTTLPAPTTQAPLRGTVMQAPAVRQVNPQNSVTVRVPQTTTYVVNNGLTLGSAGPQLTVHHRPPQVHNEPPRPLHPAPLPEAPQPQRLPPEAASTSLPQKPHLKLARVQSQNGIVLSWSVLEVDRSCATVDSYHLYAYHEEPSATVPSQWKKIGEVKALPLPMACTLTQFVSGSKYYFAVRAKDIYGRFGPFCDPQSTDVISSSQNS
Kind of assay: affinity purification with mass spectrometry; Atf7ip KO mESCs expressing 3xFLAG-ATF7IP WT, K16R or neither; normal-lysis buffer (150 mM NaCl, 1% NP-40), anti-FLAG M2 antibody and Protein G Dynabeads; LC–MS/MS.

Results are given in words; binding and its absence hold for the method and conditions named. Binding seen in cells or lysates may run through a third protein. These calls come from enrichment with a bait or labelling near it, and not all partners need be listed. No binding means not detected with the bait. Sequences can lack the tags named with a protein.

B1: M-phase phosphoprotein 8 (MPP8), endogenous in mESCs (protein, UniProt Q3TYA6 1-858)
chain: MAAAAEEGMSAAALVMSVPDSIGRSPESEGVGAGDEEKDAATKGTVAVGDSEEDGEDVFEVERILDMKCEGGKNLYKVRWKGYTSEDDTWEPEVHLEDCKEVLLEFRKKLAENKAKAVRKDIQRLSLNNDIFEADSDSDQQSDTKEDISPRKKKKKIKCKEETSPEDLRKKRTKMGKLKDKFKTELESTSEIIGFDVKTKKRIWEVKEELKDSKKPKKDEIKETKELKKANKRAEVRDLKIKIREDVKENRKTKKERYIESPLESESPNDSLILEDDSEDFISDNREENQNVRSVRDKTAQETVQEGIFEKHLDDLISIEEDAGTRVRRKKTKPRKFEEPKEIKKLESTNAFLERRAIPKKQRNQDKGISNLELNKLPSPVFAQTLKSSRLSGEEKSLKSPDLAEEEKEKKNEPKGKYQKRYDLDKEEKARKEPKVLKSFKEIRNAFDLFKKTTEEKNDVLENNSKREEISLDSKIMNDNKTKDKCSLKEKRNTRDETDTWAYIAAEGDQEVSDSVCQTDETSDGRQPVLSLGMDLQLEWMKLEDFQKHLDGEDEPFITTNRIPNNLLRDAVKNGDYIAVKVALNSNEEYNLDQEDSTGMTLVMLAAAGGQDDLLRLLITKGAKVNGRQKNGTTALIHAAEKNFLTTVAILLEAGAFVNVQQSNGETALMKACKRGNSDIVRLVIECGADCNILSKHQNSALYFAKQCNNVLVYELLKSHLETLSRVAEETIRDYFESRLALLEPVFPIACHRLCEGPDFSTDFNYMPPQNMPEGSGVLLFIFHANFLGKDVIARLCGPCSVQAVVLNDKFQLPVFLDSHFVYSFSPVAGPNKLFIRLTEAPFAKVKLLIGAYRVQLQ
Take B1: the binding result is “no binding”.

B2: ADNP, endogenous in mESCs (protein, UniProt Q9Z103 1-1108)
chain: MFQLPVNNLGSLRKARKTVKKILSDIGLEYCKEHIEDFKQFEPNDFYLKNTTWEDVGLWDPSLTKNQDYRTKPFCCSACPFSSKFFSAYKSHFRNVHSEDFENRILLNCPYCTFNADKKTLETHIKIFHAPNSSAPSSSLSTFKDKNKNDGLKPKQADNVEQAVYYCKKCTYRDPLYEIVRKHIYREHFQHVAAPYIAKAGEKSLNGAVSLGTNAREECNIHCKRCLFMPKSYEALVQHVIEDHERIGYQVTAMIGHTNVVVPRAKPLMLIAPKPQDKKGMGLPPRISSLASGNVRSLPSQQMVNRLSIPKPNLNSTGVNMMSNVHLQQNNYGVKSVGQSYGVGQSVRLGLGGNAPVSIPQQSQSVKQLLPSGNGRSFGLGAEQRPPAAARYSLQTANTSLPPGQVKSPSVSQSQASRVLGQSSSKPPPAATGPPPSNHCATQKWKICTICNELFPENVYSVHFEKEHKAEKVPAVANYIMKIHNFTSKCLYCNRYLPTDTLLNHMLIHGLSCPYCRSTFNDVEKMAAHMRMVHIDEEMGPKTDSTLSFDLTLQQGSHTNIHLLVTTYNLRDAPAESVAYHAQNNAPVPPKPQPKVQEKADVPVKSSPQAAVPYKKDVGKTLCPLCFSILKGPISDALAHHLRERHQVIQTVHPVEKKLTYKCIHCLGVYTSNMTASTITLHLVHCRGVGKTQNGQDKTNAPSRLNQSPGLAPVKRTYEQMEFPLLKKRKLEEDADSPSCFEEKPEEPVVLALDPKGHEDDSYEARKSFLTKYFNKQPYPTRREIEKLAASLWLWKSDIASHFSNKRKKCVRDCEKYKPGVLLGFNMKELNKVKHEMDFDAEWLFENHDEKDSRVNASKTVDKKHNLGKEDDSFSDSFEHLEEESNGSGSPFDPVFEVEPKIPSDNLEEPVPKVIPEGALESEKLDQKEEEEEEEEEDGSKYETIHLTEEPAKLMHDASDSEVDQDDVVEWKDGASPSESGPGSQQISDFEDNTCEMKPGTWSDESSQSEDARSSKPAAKKKATVQDDTEQLKWKNSSYGKVEGFWSKDQSQWENASENAERLPNPQIEWQNSTIDSEDGEQFDSMTDGVADPMHGSLTGVKLSSQQA
For the molecule B2, the binding result was “no binding”.

The values above are taken from paper PMC6172828.
